Assay results from the supplement of paper PMC5407854, “Inhibitor of ppGalNAc-T3-mediated O-glycosylation blocks cancer cell invasiveness and lowers FGF23 levels” (eLife, 2017).
Some of the results follow. Small differences around the control level are noise.

system: ppGalNAc-T2 sensor; assay: T2 sensor activation Q score (MG/GFP ratio z-score vs DMSO controls) (SD units); higher = more sensor activation (inhibition of ppGalNAc-T2 glycosylation); details: HEK293 sensor cells; 10 µM; 6 h
Procedure: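 Cells were treated with compound at 10 uM for 6 h, then MG/GFP ratio was read by flow cytometry (10,000 cells per well, duplicate wells). Q = (R - R_neg)/SD_neg relative to DMSO vehicle controls; the signal rises when the glycosyltransferase is inhibited.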

Row | Compound | T2 sensor activation Q score
1 | COc1ccc(S(=O)(=O)Nc2ccc3oc(C)c(C(C)=O)c3c2)cc1 | -0.16
2 | O=C(Nc1ccc(-c2ccccc2)cc1)c1ccco1 | -1.03
3 | OC(CN1CCCCCC1)CN(c1ccccc1)c1ccccc1 (stereo not given) | 0.99
4 | CC(=O)c1cc2c(cc1N)OCCO2 | 1.23
5 | Cc1cccc(OCCNCCO)c1C | 0.02
6 | CCN(CCN(C)C)Cc1ccc([N+](=O)[O-])cc1 | 0.485
7 | Cc1ccsc1CN1CCN(c2ccc(F)cc2)CC1 | -0.59
8 | CC(C)Oc1ccc(C2CC(=O)NC2=O)cc1 (stereo not given) | -1.47
9 | CC(=O)Nc1cc2c(cc1C(=O)c1ccccc1Cl)OCCO2 | -1.47
10 | Fc1ccc(CN2CCOCC2)cc1 | 0.48
11 | O=[N+]([O-])c1ccccc1N1CCCNCC1 | -0.455
12 | COc1cc2c(cc1OC)CN(Cc1c(F)cccc1Cl)CC2 | -0.24
13 | NNC(=O)CCc1ccccc1O | -1.76
14 | O=C(O)c1cc(S(=O)(=O)N2CCCCC2)ccc1Cl | -1.12
15 | COc1cccc(OC)c1C(=O)Nc1ccccc1C | -0.535
16 | COc1ccc(Nc2cc(-n3cccn3)ncn2)cc1 | -0.67
17 | O=C(O)c1ccc(Cl)c(S(=O)(=O)N2CCOCC2)c1 | 0.395
18 | C(=C\c1ccccc1)/CN1CCN(c2ncccn2)CC1 | 0.29
19 | O=C(c1ccc(Br)cc1)N1CCC(Cc2ccccc2)CC1 | 0.47
20 | O=C(Nc1cccc(Cl)c1)c1cnccn1 | 1.4

Row | Compound | T2 sensor activation Q score
21 | Cc1ccc(C)c(CN2CCN(Cc3ccc4c(c3)OCO4)CC2)c1 | -0.275
22 | O=C1c2ccc(Br)cc2C(=O)N1CCO | 0.06
23 | Cc1cccc(C)c1NC(=O)Nc1ccc(Cl)cc1 | -0.61
24 | Cc1ccc(S(=O)(=O)Nc2c(C)cc(O)c(Cl)c2C)cc1 | 0.045
25 | Cc1cc(C)cc(C(c2ccccc2)C2([N+](=O)[O-])C(=O)c3ccccc3C2=O)c1 (stereo not given) | -0.85
26 | O=S(=O)(c1ccccc1)c1ccc(N2CCCCC2)cc1 | -0.105
27 | O=[N+]([O-])C1=C(Nc2ccccc2)CS(=O)(=O)C1 | -0.835
28 | COc1ccc(NC(=O)N2CCCc3ccccc32)cc1 | -0.835
29 | Fc1ccc(CN2CCN(c3ccccn3)CC2)cc1 | 0.285
30 | O=C(Nc1ccc(N2CCOCC2)cc1)c1ccccc1F | -0.08
31 | Cc1ccc(OCCCN2CCOCC2)c(C)c1 | 1.16
32 | CC(=O)Nc1ccc(S(=O)(=O)Nc2cccc(F)c2)cc1 | 2
33 | COc1ccc(CN2CCN(c3ccc([N+](=O)[O-])cc3)CC2)cc1O | -0.04
34 | COc1ccc(OCc2nc3ccccc3[nH]2)cc1 | -1.83
35 | c1ccc2c(c1)-c1ccccc1C2N1CCNCC1 | -1.27
36 | COc1ccc(CN2CCN(c3ccc(Cl)cc3)CC2)c(OC)c1C | 0.255
37 | CC(=O)Nc1cc(O)cc(O)c1 | -1.27
38 | CN(C)c1ccc(NC2=C([N+](=O)[O-])CS(=O)(=O)C2)cc1 | -1.1
39 | Cc1ccc(S(=O)(=O)N=C2CN(C)C(=O)N2C)cc1 | -0.17
40 | O=C(c1ccc([N+](=O)[O-])cc1Cl)N1CCOCC1 | 0.51

An excerpt of these results, with tabs.
Row	Compound	T2 sensor activation Q score
21	Cc1ccc(C)c(CN2CCN(Cc3ccc4c(c3)OCO4)CC2)c1	-0.275
22	O=C1c2ccc(Br)cc2C(=O)N1CCO	0.06
23	Cc1cccc(C)c1NC(=O)Nc1ccc(Cl)cc1	-0.61
